Reference: patent US20160263005A1, “TOPICAL COMPOSITIONS AND METHODS FOR SKIN LIGHTENING” (AVON PRODUCTS, INC., priority 2014, published 2016)
Structures can show the parent of a compound that is named as a salt.

Tested on: Human epidermal melanocytes from dark-pigmented skin
Experiment: Melanin content in human epidermal melanocytes after 8 days of incubation (absorbance at 405 nm)
Format: cell-based
Method: The Compound of Formula (II) was examined for its ability to reduce pigmentation in vitro in human melanocytes. Human epidermal melanocytes from dark-pigmented skin were seeded in 6-well dishes and grown using commercially available Medium 254, a sterile, liquid medium prepared with 200 μM calcium chloride for the culture of human epidermal melanocytes, supplemented with 1% Penicillin/Streptomycin and 1% Human Melanocyte Growth Supplement. Corresponding controls were maintained without histamine, Diphenylhydramine HCl and Compound II. Four replicates were tested for each combination. After 8 days of incubation, melanin was collected and processed by washing the wells with 1× phosphate-buffered saline (PBS), followed by addition of 200 μL of 2M NaOH to three of the four replicates, which are then scraped, pooled and boiled at 80° C. for an hour. Melanin absorption was then measured at 405 nm using a spectrophotometer.
Results are summarized in Table 1 below as percent change of melanin absorbance relative to vehicle control. A larger (positive or negative) percent change indicates a larger increase or reduction in melanin.

Q: Which results are given for `CN(C)CCOC(c1ccccc1)c1ccccc1` [Diphenhydramine HCl]?
A: % Pigmentation (percent change of melanin absorbance relative to vehicle control) (5 μM, 8 days of incubation): −38.75%; Effect on pigmentation, in words (at the concentrations of Table 1): reduces pigmentation
